The text below walks through data of PubChem BioAssay AID328 (DTP/NCI, 2004).

The assay deals with BDF1 mice, P388 leukemia ip, median survival T/C. In words: NCI In Vivo Anticancer Drug Screen. Data for tumor model P388 Leukemia (intraperitoneal) in B6D2F1 (BDF1) mice. The conditions noted are these: T/C endpoint: median survival time, higher T/C = longer survival. The method in brief: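 In tumour-bearing mice, survival after compound treatment is set against the vehicle group and given as a quotient.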

[1] abbreviates: dose: 3.0 mg/kg/injection, schedule: Q01DX009 (ip), vehicle: water.
Where [2] appears, read: dose: 200.0 mg/kg/injection, schedule: Q01DX009 (ip), vehicle: saline with Tween-80.
[3] abbreviates: dose: 200.0 mg/kg/injection, schedule: Q04DX003 (ip), vehicle: saline.
Where [4] appears, read: dose: 12.5 mg/kg/injection, schedule: Q01DX009 (ip), vehicle: saline.

The list shows only some results of the screen, not a fair sample: it is rich in T/C values a quarter to a half above the control, in often repeated tests (any T/C) and in doses without a T/C. Other doses and runs of a compound stand elsewhere. T/C is the treated group as % of the vehicle group. Some entries give survivors of the animals treated and no T/C: the source files T/C as zero there, which appears to mark a toxic dose or a test without result, not a measured value. Some doses without a T/C left all or most animals alive at the check, yet need not have been tolerated: survival well below the control is almost never listed, so the zero probably covers shortened survival too. Survivors were counted at the toxicity check, usually on the fifth day, unless a day is given; later deaths do not show. Schedule codes are those of the source, read here as Q, the interval in days (D) or hours (H), X, the number of doses. Some entries hold several experiments; the values are given in rising order. Some structures stand for samples that the source files as different forms (salt, stereo form or complex); doses refer to the form tested. Where survival is the endpoint, the PubChem record calls one and a half times the control and up active, and a quarter to a half above the control has no call in these data; cut-offs in other NCI protocols can differ. Some T/C values are followed by the survivors on the day toxicity was checked, most often the fifth; without a count, all were alive then.

In the case of `O=C1NC(Cc2ccc(N(CCCl)CCCl)cc2)C(=O)O1` (centres undefined), the T/C is 129 % of control (dose: 0.03 mg/kg/injection, schedule: Q01DX009 (ip), vehicle: saline with Tween-80); 125 % of control (dose: 0.12 mg/kg/injection, schedule: Q01DX009 (ip), vehicle: saline with Tween-80); 146 % of control (dose: 0.5 mg/kg/injection, schedule: Q01DX009 (ip), vehicle: saline with Tween-80); 131 % of control (dose: 0.5 mg/kg/injection, schedule: Q04DX003 (ip), vehicle: saline with Tween-80); 133 % of control (dose: 0.8 mg/kg/injection, schedule: Q04DX003 (ip), vehicle: saline with Tween-80); 146 % of control (dose: 1.0 mg/kg/injection, schedule: Q01DX009 (ip), vehicle: saline with Tween-80). Moreover, the T/C by setting is: (dose: 12.0 mg/kg/injection, schedule: Q04DX003 (ip), vehicle: saline with Tween-80) 154, 230, 250, 272 % of control; (dose: 18.0 mg/kg/injection, schedule: Q04DX003 (ip), vehicle: saline with Tween-80) 100 [5 of 6 alive], 230, 250, 272 % of control. The survivor count runs as follows: (dose: 18.0 mg/kg/injection, schedule: Q01DX009 (ip), vehicle: saline with Tween-80) 6 of 6; (dose: 90.0 mg/kg/injection, schedule: Q04DX003 (ip), vehicle: saline with Tween-80) 6 of 6.

On to `CC(=O)Nc1cc(F)c([N+](=O)[O-])cc1[N+](=O)[O-]`, for which, for the setting “dose: 1.25 mg/kg/injection, schedule: Q01DX009 (ip), vehicle: saline”, the T/C was 135 % of control. Further, the survivor count (dose: 40.0 mg/kg/injection, schedule: Q01DX009 (ip), vehicle: Klucel (hydroxypropylcellulose) (HPC)) is reported as 3 of 6.

Consider `CC[C@@]1(O)C[C@H](OC2CC(N(C)C)C(OC3CC(O)C(OC4CCC(=O)C(C)O4)C(C)O3)C(C)O2)c2c(cc3c(c2O)C(=O)c2c(O)ccc(O)c2C3=O)[C@H]1C(=O)OC` (some centres undefined), for which the T/C (dose: 0.25 mg/kg/injection, schedule: Q01DX009 (ip), vehicle: saline) was 129 % of control; the T/C (dose: 0.5 mg/kg/injection, schedule: Q01DX009 (ip), vehicle: saline) was 137 % of control; the T/C (dose: 0.65 mg/kg/injection, schedule: Q01DX009 (ip), vehicle: water) is 132 % of control; the T/C (dose: 1.73 mg/kg/injection, schedule: Q04DX003 (ip), vehicle: water) is recorded as 150, 155, 163, 167 % of control; the T/C (dose: 2.5 mg/kg/injection, schedule: Q04DX003 (ip), vehicle: water) is 148 % of control; the T/C (dose: 2.88 mg/kg/injection, schedule: Q04DX003 (ip), vehicle: water, evaluated on day 9) was 143 % of control. Moreover, the T/C was 166, 175, 192, 206 % of control (dose: 2.88 mg/kg/injection, schedule: Q04DX003 (ip), vehicle: water, evaluated on day 60); 130 % of control under setting [1]; 132 % of control (dose: 4.0 mg/kg/injection, schedule: Q04DX003 (ip), vehicle: water); 210 % of control (dose: 4.8 mg/kg/injection, schedule: Q04DX003 (ip), vehicle: water, evaluated on day 9); 177, 195, 223, 265 % of control (dose: 4.8 mg/kg/injection, schedule: Q04DX003 (ip), vehicle: water, evaluated on day 60); 127 % of control (dose: 6.33 mg/kg/injection, schedule: Q01DX001 (ip), vehicle: water, evaluated on day 7). The T/C was 127 % of control (dose: 6.33 mg/kg/injection, schedule: Q01DX001 (ip), vehicle: water, evaluated on day 60); 170 and 175 % of control (dose: 8.0 mg/kg/injection, schedule: Q04DX003 (ip), vehicle: water, evaluated on day 9); 90, 95, 108, 125 % of control (dose: 8.0 mg/kg/injection, schedule: Q04DX003 (ip), vehicle: water, evaluated on day 60). For the same molecule, the survivor count by setting is: under setting [1], 8 of 8; (dose: 4.0 mg/kg/injection, schedule: Q01DX003 (ip), vehicle: saline) 6 of 6; (dose: 4.0 mg/kg/injection, schedule: Q01DX009 (ip), vehicle: water) 8 of 8; (dose: 6.0 mg/kg/injection, schedule: Q01DX010 (ip), vehicle: saline) 4 of 6; (dose: 8.0 mg/kg/injection, schedule: Q01DX009 (ip), vehicle: water) 4 of 8; (dose: 8.0 mg/kg/injection, schedule: Q04DX003 (ip), vehicle: other) 8 of 8. The survivor count (dose: 20.0 mg/kg/injection, schedule: Q01DX001 (ip), vehicle: water) was 1 of 8.

For the molecule `CC(=O)CC(C)=O.CC(=O)CC(C)=O.C[CH2][Sn][CH2]C`, the T/C (dose: 25.0 mg/kg/injection, schedule: Q01DX001 (ip), vehicle: Klucel (hydroxypropylcellulose) (HPC)) was 130 % of control. Also, the survivor count (dose: 50.0 mg/kg/injection, schedule: Q01DX001 (ip), vehicle: Klucel (hydroxypropylcellulose) (HPC)) was 0 of 6.

With `O=[N+]([O-])c1cc([N+](=O)[O-])c2ccccc2c1NS(=O)(=O)c1ccc(Cl)c(Cl)c1Cl`, the T/C under setting [2] was 127 % of control [4 of 6 alive].

In the case of `Cc1ccc(-c2nc3sccn3c2/C=N/NC(N)=S)cc1`, the survivor count (dose: 200.0 mg/kg/injection, schedule: Q01DX001 (ip), vehicle: Klucel (hydroxypropylcellulose) (HPC)) was 6 of 6.

Regarding `O=C(O)c1ccc(NC(=O)C(F)(F)F)cc1`, the survivor count (dose: 50.0 mg/kg/injection, schedule: Q04DX003 (ip), vehicle: saline sonified) is given as 5 of 6.

On to `COc1ccc(/C=C/C(=O)c2ccc(OC)c(OCc3ccccc3)c2)cc1OC`, for which the survivor count (dose: 12.5 mg/kg/injection, schedule: Q01DX009 (ip), vehicle: water) is given as 6 of 6. Further, the T/C (dose: 400.0 mg/kg/injection, schedule: Q01DX009 (ip), vehicle: water) is 128 % of control.

As for `CN(C)CCCN1c2ccccc2Sc2ccc(F)cc21`, for the setting “dose: 50.0 mg/kg/injection, schedule: Q01DX009 (ip), vehicle: saline”, the T/C was 136 % of control. Besides, the survivor count is, setting by setting: (dose: 100.0 mg/kg/injection, schedule: Q04DX003 (ip), vehicle: saline) 2 of 6; under setting [3], 1 of 6.

In the case of `Cn1c(N)c(N=O)c(=O)n(C)c1=O`, for the setting “dose: 12.5 mg/kg/injection, schedule: Q01DX009 (ip), vehicle: Klucel (hydroxypropylcellulose) (HPC)”, the survivor count was 6 of 6.

In the case of `COc1ccc(/C(=N/N)C(C)(C)C)cc1`, the survivor count (dose: 100.0 mg/kg/injection, schedule: Q01DX009 (ip), vehicle: saline with Tween-80) is listed as 5 of 6 and the survivor count under setting [2] is 0 of 6.

Consider `C1CN2CCN1CC2.[Cl][Ni+][Cl]`, for which, under setting [4], the T/C was 126 % of control. Besides, the survivor count by setting is: under setting [4], 6 of 6; (dose: 20.0 mg/kg/injection, schedule: Q01DX009 (ip), vehicle: saline) 6 of 6; (dose: 25.0 mg/kg/injection, schedule: Q01DX009 (ip), vehicle: saline) 5 of 6.

Turning to `COCCOP(=O)(N1CC1)N1CC1`, the survivor count by setting is: under setting [3], 6 of 6; (dose: 400.0 mg/kg/injection, schedule: Q04DX003 (ip), vehicle: saline) 0 of 6.

In the case of `C[CH2][Ge]1([CH2]C)[CH2]CC2(CCN(CCCN(C)C)C2)C[CH2]1`, the survivor count is 3 of 3 (dose: 40.0 mg/kg/injection, schedule: Q01DX009 (ip), vehicle: saline with Tween-80); 3 of 3 (dose: 80.0 mg/kg/injection, schedule: Q01DX009 (ip), vehicle: saline with Tween-80); 2 of 3 and 6 of 6 (dose: 100.0 mg/kg/injection, schedule: Q01DX009 (ip), vehicle: saline); 0 of 3 and 0 of 6 (dose: 200.0 mg/kg/injection, schedule: Q01DX009 (ip), vehicle: saline); 0 of 6 (dose: 400.0 mg/kg/injection, schedule: Q01DX009 (ip), vehicle: saline).

`O=C(O)CSC(=S)c1ccccc1`: the T/C (dose: 50.0 mg/kg/injection, schedule: Q01DX009 (ip), vehicle: saline with Tween-80) was 129 % of control [5 of 6 alive].
